Experimental data from patent US8232305B2, “Anti-microbial compositions” (BASF SE, priority 2006, dated 2012).
Some results were stated once for a whole list of compounds, not compound by compound. For at least one compound, name, drawing or mass did not settle the structure.

Test system: bacteria, yeasts and moulds of Examples 7, 8, 9 and 10
Test: Activity according to the protocols of Examples 7, 8, 9 and 10
Format: cell-based

CC=CC=CCOC(=O)C[n+]1ccn(CCCC)c1.[Cl-] [Example 14, 1-butyl-3-(2-oxo-2-hexadienyloxyethyl)-1H-Imidazolium chloride]
activity when tested according to the protocols of Examples 7, 8, 9 and 10: good activity
